Consider one molecule from publication PMC3012730, “The Actinobacillus pleuropneumoniae HMW1C-Like Glycosyltransferase Mediates N-Linked Glycosylation of the Haemophilus influenzae HMW1 Adhesin” (PLoS ONE, 2010).

For the test, the target named is Actinobacillus pleuropneumoniae HMW1C-like glycosyltransferase (ApHMW1C), His-tagged (Actinobacillus pleuropneumoniae) (UniProt A3N2T3). Put plainly: SEC; analytical gel filtration of purified ApHMW1C; standards aldolase 158 kDa, conalbumin 75 kDa, ovalbumin 43 kDa; calculated molecular weight ~70 kDa; both purified.

These are yes or no findings as the source states them, for the method shown. Tags and fused reporters may be left off the sequences shown.

B1: Actinobacillus pleuropneumoniae HMW1C-like glycosyltransferase (ApHMW1C), His-tagged (enzyme, UniProt A3N2T3 1-620)
chain: MENENKPNVANFEAAVAAKDYEKACSELLLILSQLDSNFGGIHEIEFEYPAQLQDLEQEKIVYFCTRMATAITTLFSDPVLEISDLGVQRFLVYQRWLALIFASSPFVNADHILQTYNREPNRKNSLEIHLDSSKSSLIKFCILYLPESNVNLNLDVMWNISPELCASLCFALQSPRFVGTSTAFNKRATILQWFPRHLDQLKNLNNIPSAISHDVYMHCSYDTSVNKHDVKRALNHVIRRHIESEYGWKDRDVAHIGYRNNKPVMVVLLEHFHSAHSIYRTHSTSMIAAREHFYLIGLGSPSVDQAGQEVFDEFHLVAGDNMKQKLEFIRSVCESNGAAIFYMPSIGMDMTTIFASNTRLAPIQAIALGHPATTHSDFIEYVIVEDDYVGSEECFSETLLRLPKDALPYVPSALAPEKVDYLLRENPEVVNIGIASTTMKLNPYFLEALKAIRDRAKVKVHFHFALGQSNGITHPYVERFIKSYLGDSATAHPHSPYHQYLRILHNCDMMVNPFPFGNTNGIIDMVTLGLVGVCKTGAEVHEHIDEGLFKRLGLPEWLIANTVDEYVERAVRLAENHQERLELRRYIIENNGLNTLFTGDPRPMGQVFLEKLNAFLKEN
B1: the binding result was “no binding”.
